# Library screen at single concentrations

The chains behind the UniProt entries cited, without tags or fusion partners. Residues count along the entry.
UniProt A4I591, 1-473: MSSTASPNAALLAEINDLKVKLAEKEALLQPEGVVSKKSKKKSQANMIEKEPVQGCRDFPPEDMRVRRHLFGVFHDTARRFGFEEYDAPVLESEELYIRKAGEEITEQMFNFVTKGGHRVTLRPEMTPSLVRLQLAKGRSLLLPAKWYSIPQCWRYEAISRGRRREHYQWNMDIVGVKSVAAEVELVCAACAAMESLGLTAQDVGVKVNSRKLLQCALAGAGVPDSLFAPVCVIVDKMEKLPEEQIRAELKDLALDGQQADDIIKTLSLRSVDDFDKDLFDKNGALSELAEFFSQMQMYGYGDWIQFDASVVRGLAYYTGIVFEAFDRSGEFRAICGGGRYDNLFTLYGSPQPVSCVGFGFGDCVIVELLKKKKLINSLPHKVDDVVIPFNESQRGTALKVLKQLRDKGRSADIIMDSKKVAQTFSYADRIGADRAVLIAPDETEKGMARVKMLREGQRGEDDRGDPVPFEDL
UniProt Q4DA54, 1-478: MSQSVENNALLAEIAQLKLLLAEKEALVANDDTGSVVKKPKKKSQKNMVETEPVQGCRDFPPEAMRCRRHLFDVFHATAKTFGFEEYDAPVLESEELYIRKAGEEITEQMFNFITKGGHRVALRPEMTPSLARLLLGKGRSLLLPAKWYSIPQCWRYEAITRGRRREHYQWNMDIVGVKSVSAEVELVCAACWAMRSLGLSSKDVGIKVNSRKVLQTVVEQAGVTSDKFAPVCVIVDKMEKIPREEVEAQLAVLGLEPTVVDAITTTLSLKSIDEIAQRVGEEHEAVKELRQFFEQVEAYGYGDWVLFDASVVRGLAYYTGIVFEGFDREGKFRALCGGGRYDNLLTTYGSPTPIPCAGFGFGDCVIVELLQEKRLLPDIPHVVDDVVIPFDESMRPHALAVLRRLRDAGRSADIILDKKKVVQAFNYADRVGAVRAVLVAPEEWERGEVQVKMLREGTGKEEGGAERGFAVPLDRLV

The filed quantity is “Percent Effect” (%). How 0% and 100% were set is not recorded. Most values in the screen are low, and negative values occur. Compounds were drawn at random from those tested, without regard to their results.

LiHisRS: 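Histidine-tRNA ligase, Leishmania infantum (UniProt A4I591). Enzyme assay of histidyl-tRNA synthetase; the read-out is not stated. Tested at 30 µM. The record gives no direction; compounds that gave an IC50 in retests scored well above the rest, so higher reads as stronger inhibition. The assay is labelled LdHisRS but filed under L. infantum. About 69,000 compounds were tested under these conditions; 0.6% (about 410) showed 50% or more at least once.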
TcHisRS: 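Histidine-tRNA ligase, Trypanosoma cruzi CL Brener (UniProt Q4DA54). Enzyme assay of histidyl-tRNA synthetase; the read-out is not stated. Concentration: 30 µM. Higher reads as stronger inhibition (inferred: compounds with an IC50 in retests scored well above the rest). Size under these conditions: about 69,000 compounds, about 31 of them at 50% or above in at least one test.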

| # | Compound | LiHisRS | TcHisRS |
|---|---|---|---|
| 1 | `Cc1ccc(C(F)(F)F)cc1NCC(=O)Nc1c(C)nn(C)c1C` | 17.78 | 2.381 |
| 2 | `CN(C)C(=O)N1CCN(CCn2nc3ccccn3c2=O)CC1` | 17.14 | 6.522 |
| 3 | `Cn1cc(-c2cnc(N3CCOCC3)nc2)cc1C(=O)N1CCOCC1` | 10.95 | 2.732 |
| 4 | `CCS(=O)(=O)N1CCc2c(cnc(-c3cccnc3)c2C(=O)O)C1` | 18.18 | 4.132 |
| 5 | `COc1c(C2CCCN2C(=O)c2ccoc2C)c(C)nn1C` (centres unmarked) | 0 | 2.062 |
| 6 | `Cc1cn2c(n1)CCC(NC(=O)CCC1CC1)C2` (centres unmarked) | 9.821 | 10 |
| 7 | `CCn1ccnc1CN1CCCC(CO)(CCCc2ccccc2)C1` (centres unmarked) | 9.836 | -8.14 |
| 8 | `CCn1ncc2c1CCCC2NCc1csc(COC)n1` (centres unmarked) | 19.17 | 5.263 |
| 9 | `Cc1cc(CN2CCCC2c2c(C)nn(C)c2Cl)no1` (centres unmarked) | 34.85 | 0.7576 |
| 10 | `Cc1ccc(C(=O)O)cc1-c1cccc2c1CCNC2` | 15.38 | 4.478 |
| 11 | `COc1ccc(C(=O)O)c(OCC(=O)NC(C)c2ccccc2)c1` (centres unmarked) | 18.18 | 3.175 |
| 12 | `OC1CCN(Cc2ccnc(-c3cccnc3)n2)CC1` | 8 | 3.745 |
| 13 | `O=C(Cc1cccs1)NCC1(O)CCSC1` (centres unmarked) | 9.402 | 7.778 |
| 14 | `Cc1ccc(N2Cc3c(CN(C)C)nn(C)c3C2)nn1` | 7.018 | -24.73 |
| 15 | `COC(=O)C(O)C1CCN(Cc2cccc(-n3cccn3)c2)CC1` (centres unmarked) | 15.05 | 1.235 |
| 16 | `CC(C)c1ncc(CN2CCCC(CO)C2)cn1` (centres unmarked) | 5.556 | 1.622 |
| 17 | `CC(C)c1noc(CN(C)C(=O)C2COc3ccccc3C2)n1` (centres unmarked) | 12 | -2.513 |
| 18 | `Cc1nc(N2CCOCC2)nc2c1CCN(C(=O)C1CCCCC1)CC2` | 20.51 | 4.878 |
| 19 | `CCOCCCn1c(NC(=O)c2cnn(C)c2)nc2ccccc21` | 13.7 | -0.7634 |
| 20 | `Cc1cnc(N2CCC3(CC2)COCCN(C(C)C)C3)nc1` | 12 | 1.031 |
| 21 | `CC1(C(=O)NCc2cccnc2Oc2ccc(F)cc2F)CCCNC1` (centres unmarked) | 0 | 2.703 |
| 22 | `C=C(C)COc1ccccc1C(=O)NCCc1nncn1C` | -9.091 | 1.935 |
| 23 | `CS(=O)(=O)N1CCC2(CC1)CC(Oc1ccccn1)CO2` (centres unmarked) | 8.772 | 2.186 |
| 24 | `Cc1noc(C)c1NC(=O)Cn1cc(Br)ccc1=O` | 5 | 7.843 |
| 25 | `c1ccc(-n2ncc(CN3CCCC3Cn3cccn3)n2)cc1` (centres unmarked) | -9.375 | 4.943 |
| 26 | `COC(=O)c1ccc(N2CCN(C(=O)c3ccco3)C(C)C2)cc1` (centres unmarked) | 16.36 | 5.263 |
| 27 | `Cn1cnnc1C1CCCN(C(=O)c2n[nH]c3ccccc23)C1` (centres unmarked) | 24 | -1.132 |
| 28 | `CC(C)Cc1noc(CN(C)C(=O)C2COc3ccccc3C2)n1` (centres unmarked) | 16.04 | 3.347 |
| 29 | `CCc1nc(C)c(-c2nccn2CC2CCCCO2)[nH]1` (centres unmarked) | 16.39 | 4.04 |
| 30 | `O=C(C1CC1)N1C[C@H]2CCCN(S(=O)(=O)c3cccc(F)c3)[C@H]2C1` | 7.194 | 5.747 |
| 31 | `Cc1nsc(NC(=O)NC2CCCN(C)C2)n1` (centres unmarked) | 8.73 | 8.235 |
| 32 | `CCS(=O)(=O)c1ccc(N2CCC(NC(C)=O)CC2)cc1` | 8.738 | 4.564 |
| 33 | `Cc1nn(C)c(C)c1C(C)NCc1ccc(OC(C)C)cc1` (centres unmarked) | 12.86 | 4.255 |
| 34 | `CCCc1nc(N(C)Cc2ccco2)c2c(n1)c(C)nn2CC` | 22.5 | 8.696 |
| 35 | `CCS(=O)(=O)NCCNC(=O)N(Cc1ccc(C)o1)C(C)C` | 13.33 | 2.597 |
| 36 | `CC1CCN(S(=O)(=O)N2CCCC(c3cccc(C(=O)O)c3)C2)CC1` (centres unmarked) | 9.836 | -4.651 |
| 37 | `Cn1cc(S(=O)(=O)NCC2CCN(C(=O)Oc3ccccc3)CC2)cn1` | 13.56 | 4.39 |
| 38 | `Cc1ccc(C(=O)N2CCO[C@H]3[C@H](OCCN(C)C)CC[C@@H]32)o1` | 22.81 | 0 |
| 39 | `Cc1nn(-c2ccccc2Cl)c(C)c1CCC(=O)NCCS(C)(=O)=O` | 1.98 | 5.682 |
| 40 | `O=C(NCC(F)(F)F)c1ccncc1` | 16.85 | 3.627 |

The first 3 entries again:

Cc1ccc(C(F)(F)F)cc1NCC(=O)Nc1c(C)nn(C)c1C read LiHisRS: 17.78%; TcHisRS: 2.381%.
CN(C)C(=O)N1CCN(CCn2nc3ccccn3c2=O)CC1 read LiHisRS: 17.14%; TcHisRS: 6.522%.
Cn1cc(-c2cnc(N3CCOCC3)nc2)cc1C(=O)N1CCOCC1 read LiHisRS: 10.95%; TcHisRS: 2.732%.

Source: ChEMBL document CHEMBL3988442, “University of Dundee, Small-Polar-MMV Screening Library” (2021).